Source: the supplement of paper PMC6078165
Values are relative to the signal before dosing, not to a vehicle control; the signal also falls without drug.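 Labels refer to human fibroblasts, largely primary: uterine (C12385, HUF), lung (H6013), bone (Hs27A), adrenal (HADF), skin (WS1), plus mammary HMF and breast cancer-associated Hs343T. Cancer lines are basal-like or mesenchymal-like triple-negative breast cancer. The paper counts as hits responses shifting over 3x the replicate standard deviation. The tissue of the other fibroblasts is not given here.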

Test system: BT20
Assay: relative JC-1 red fluorescence (viability) vs pre-drug, coculture with fibroblast (fraction); higher = more viable cancer cells
Experimental: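 JC-1 labelled TNBC cells cocultured 1:1 (1,500 cells each) with CellTrace Violet stained primary or stromal fibroblasts in 384-well plates in FluoroBrite medium, treated with one of 42 anticancer drugs at 0.1, 1, 10 or 100 uM. JC-1 red fluorescence (mitochondrial integrity in cancer cells only) was read by plate reader every 8 h for 72 h. Values are normalised to each well's pre-drug value. The stock of one drug was tenfold lower, so its dose labels may be too high.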

CO[C@H]1C[C@@H]2CC[C@@H](C)[C@@](O)(O2)C(=O)C(=O)N2CCCC[C@H]2C(=O)O[C@H]([C@H](C)C[C@@H]2CC[C@@H](OCCO)[C@H](OC)C2)CC(=O)[C@H](C)/C=C(\C)[C@@H](O)[C@@H](OC)C(=O)[C@H](C)C[C@H](C)/C=C/C=C/C=C/1C [Everolimus]
relative JC-1 red fluorescence
Conditions | 8 h | 16 h | 24 h | 32 h | 40 h | 48 h | 56 h | 64 h | 72 h
10 µM, coculture fibroblast: C12385 | 0.8653 | 0.848 | 0.8236 | 0.78413 | 0.7288 | 0.704 | 0.667 | 0.646 | 0.624
10 µM, coculture fibroblast: H6013 | 0.8767 | 0.887 | 0.858 | 0.816 | 0.934 | 0.906 | 0.91 | 0.844 | 0.855
10 µM, coculture fibroblast: H6019 | 0.87 | 0.841 | 0.845 | 0.815 | 0.792 | 0.793 | 0.771 | 0.765 | 0.755
10 µM, coculture fibroblast: H6076 | 0.852 | 0.873 | 0.941 | 0.95 | 0.933 | 0.916 | 0.92 | 0.913 | 0.91
10 µM, coculture fibroblast: H6231 | 0.857 | 0.871 | 0.9712 | 0.9022 | 0.849 | 0.804 | 0.749 | 0.716 | 0.682
10 µM, coculture fibroblast: HADF | 0.83 | 0.77 | 0.953 | 0.878 | 0.873 | 0.914 | 0.906 | 0.915 | 0.857
10 µM, coculture fibroblast: HCFa | 0.945 | 0.892 | 0.871 | 0.864 | 0.854 | 0.839 | 0.786 | 0.803 | 0.916
10 µM, coculture fibroblast: HCPF | 0.8482 | 0.864 | 0.9826 | 0.934 | 0.916 | 0.8765 | 0.855 | 0.8498 | 0.808
10 µM, coculture fibroblast: HHSteC | 0.961 | 0.879 | 0.908 | 0.945 | 0.93 | 0.916 | 0.902 | 0.89 | 0.879
10 µM, coculture fibroblast: HMF | 0.871 | 0.713 | 0.9791 | 0.9369 | 0.911 | 0.8682 | 0.8258 | 0.7795 | 0.7342
10 µM, coculture fibroblast: HPFa | 0.9621 | 0.9623 | 0.965 | 0.897 | 0.862 | 0.822 | 0.784 | 0.768 | 0.733
10 µM, coculture fibroblast: HUF | 0.859 | 0.868 | 0.95 | 0.884 | 0.843 | 0.804 | 0.783 | 0.772 | 0.755
10 µM, coculture fibroblast: Hs5 | 0.877 | 0.899 | 0.974 | 0.93 | 0.891 | 0.8511 | 0.815 | 0.785 | 0.764
10 µM, coculture fibroblast: Hs27A | 0.743 | 0.8 | 0.951 | 0.857 | 0.963 | 0.948 | 0.931 | 0.92 | 0.8794
10 µM, coculture fibroblast: Hs343T | 0.87 | 0.8745 | 0.9471 | 0.9146 | 0.8731 | 0.82 | 0.7809 | 0.764 | 0.731
10 µM, coculture fibroblast: WS1 | 0.9065 | 0.9104 | 0.898 | 0.862 | 0.825 | 0.815 | 0.787 | 0.766 | 0.75
100 µM, coculture fibroblast: C12385 | 0.898 | 0.7395 | 0.748 | 0.681 | 0.576 | 0.494 | 0.426 | 0.371 | 0.31
100 µM, coculture fibroblast: H6013 | 0.893 | 0.797 | 0.823 | 0.819 | 0.685 | 0.608 | 0.662 | 0.699 | 0.712
100 µM, coculture fibroblast: H6019 | 0.829 | 0.664 | 0.527 | 0.358 | 0.26 | 0.263 | 0.27 | 0.288 | 0.298
100 µM, coculture fibroblast: H6076 | 0.868 | 0.65 | 0.49 | 0.443 | 0.436 | 0.464 | 0.504 | 0.52 | 0.522
100 µM, coculture fibroblast: H6231 | 0.89 | 0.815 | 0.772 | 0.706 | 0.653 | 0.586 | 0.577 | 0.57 | 0.558
100 µM, coculture fibroblast: HADF | 0.823 | 0.72 | 0.812 | 0.714 | 0.723 | 0.595 | 0.589 | 0.633 | 0.658
100 µM, coculture fibroblast: HCFa | 0.7545 | 0.853 | 0.911 | 0.744 | 0.643 | 0.564 | 0.58 | 0.615 | 0.628
100 µM, coculture fibroblast: HCPF | 0.866 | 0.839 | 0.842 | 0.698 | 0.596 | 0.534 | 0.498 | 0.475 | 0.44
100 µM, coculture fibroblast: HHSteC | 0.913 | 0.842 | 0.645 | 0.482 | 0.352 | 0.275 | 0.294 | 0.316 | 0.327
100 µM, coculture fibroblast: HMF | 0.936 | 0.556 | 0.355 | 0.314 | 0.331 | 0.337 | 0.363 | 0.359 | 0.358
100 µM, coculture fibroblast: HPFa | 0.963 | 0.761 | 0.817 | 0.634 | 0.509 | 0.381 | 0.386 | 0.418 | 0.434
100 µM, coculture fibroblast: HUF | 0.791 | 0.886 | 0.921 | 0.716 | 0.595 | 0.54 | 0.554 | 0.553 | 0.548
100 µM, coculture fibroblast: Hs5 | 0.961 | 0.747 | 0.517 | 0.469 | 0.48 | 0.504 | 0.534 | 0.534 | 0.523
100 µM, coculture fibroblast: Hs27A | 0.8611 | 0.842 | 0.75 | 0.884 | 0.831 | 0.856 | 0.791 | 0.812 | 0.825
100 µM, coculture fibroblast: Hs343T | 0.953 | 0.801 | 0.447 | 0.407 | 0.418 | 0.422 | 0.445 | 0.456 | 0.442
100 µM, coculture fibroblast: WS1 | 0.902 | 0.8666 | 0.726 | 0.741 | 0.544 | 0.426 | 0.328 | 0.266 | 0.252
